This note sets out measurements from article PMC8748963.

For assay [1], the target named is ELK1, endogenous in C2C12 cells (mouse (endogenous in C2C12)) (UniProt P41969). Description: co-IP; endogenous proteins of C2C12 lysates; anti-SRF antibody (blot for NLK) or anti-ELK1 antibody (blot for SRF; wild-type and NLK-knockdown cells, with TPA); NP-40 lysis buffer, Protein A/G beads overnight at 4 °C.
Assay [2] deals with T1, Flag-MKL1 (UniProt Q969V6).
T1 sequence: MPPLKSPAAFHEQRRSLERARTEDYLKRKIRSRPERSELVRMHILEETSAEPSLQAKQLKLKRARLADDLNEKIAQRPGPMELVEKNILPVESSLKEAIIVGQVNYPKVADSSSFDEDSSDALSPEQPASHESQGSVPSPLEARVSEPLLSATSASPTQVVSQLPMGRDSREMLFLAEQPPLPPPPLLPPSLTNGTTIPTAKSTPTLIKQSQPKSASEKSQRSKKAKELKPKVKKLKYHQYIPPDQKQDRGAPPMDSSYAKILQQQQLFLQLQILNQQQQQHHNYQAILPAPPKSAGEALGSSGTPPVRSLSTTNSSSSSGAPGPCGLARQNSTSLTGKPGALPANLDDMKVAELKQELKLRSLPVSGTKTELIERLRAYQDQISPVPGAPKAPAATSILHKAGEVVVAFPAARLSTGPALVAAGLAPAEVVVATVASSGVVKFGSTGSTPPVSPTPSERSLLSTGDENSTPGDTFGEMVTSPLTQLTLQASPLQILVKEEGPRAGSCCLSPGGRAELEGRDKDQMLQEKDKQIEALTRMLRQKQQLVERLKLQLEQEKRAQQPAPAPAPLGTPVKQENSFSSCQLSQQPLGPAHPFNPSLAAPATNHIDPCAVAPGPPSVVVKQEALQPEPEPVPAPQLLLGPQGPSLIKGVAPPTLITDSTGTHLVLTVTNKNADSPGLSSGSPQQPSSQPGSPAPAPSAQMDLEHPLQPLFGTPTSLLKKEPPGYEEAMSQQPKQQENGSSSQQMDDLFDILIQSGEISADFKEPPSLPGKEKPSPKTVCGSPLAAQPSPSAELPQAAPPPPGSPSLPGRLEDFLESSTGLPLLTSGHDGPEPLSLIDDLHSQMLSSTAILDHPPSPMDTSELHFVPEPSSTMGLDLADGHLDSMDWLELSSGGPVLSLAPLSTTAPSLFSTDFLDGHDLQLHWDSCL
Nature of the assay: co-IP; HEK293T cells cotransfected with tagged plasmids (HA-SRF or HA-SRF^S101/103D, Flag-ELK1 or Flag-MKL1, with or without Myc-NLK); NP-40 lysis buffer (30 mM Tris-HCl pH 7.4, 150 mM NaCl, 1% NP-40), antibody and Protein A/G beads overnight at 4 °C; immunoblot.

In assay [3] the target is T2, Flag-ELK1 (UniProt P19419).
T2 sequence: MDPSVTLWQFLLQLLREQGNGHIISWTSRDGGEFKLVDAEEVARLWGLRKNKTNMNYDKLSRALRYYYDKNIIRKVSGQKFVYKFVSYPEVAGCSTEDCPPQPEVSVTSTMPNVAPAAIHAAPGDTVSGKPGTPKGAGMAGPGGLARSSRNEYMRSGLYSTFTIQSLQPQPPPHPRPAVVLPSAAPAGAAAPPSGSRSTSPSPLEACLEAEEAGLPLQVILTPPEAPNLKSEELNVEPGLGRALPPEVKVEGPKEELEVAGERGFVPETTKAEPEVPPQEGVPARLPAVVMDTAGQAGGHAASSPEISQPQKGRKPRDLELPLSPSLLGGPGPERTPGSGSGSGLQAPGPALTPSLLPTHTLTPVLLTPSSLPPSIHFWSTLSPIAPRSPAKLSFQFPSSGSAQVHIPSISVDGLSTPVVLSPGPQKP
Described as above.

The target of assay [4] is T3, HA-SRF (serum response factor) (UniProt P11831).
T3 sequence: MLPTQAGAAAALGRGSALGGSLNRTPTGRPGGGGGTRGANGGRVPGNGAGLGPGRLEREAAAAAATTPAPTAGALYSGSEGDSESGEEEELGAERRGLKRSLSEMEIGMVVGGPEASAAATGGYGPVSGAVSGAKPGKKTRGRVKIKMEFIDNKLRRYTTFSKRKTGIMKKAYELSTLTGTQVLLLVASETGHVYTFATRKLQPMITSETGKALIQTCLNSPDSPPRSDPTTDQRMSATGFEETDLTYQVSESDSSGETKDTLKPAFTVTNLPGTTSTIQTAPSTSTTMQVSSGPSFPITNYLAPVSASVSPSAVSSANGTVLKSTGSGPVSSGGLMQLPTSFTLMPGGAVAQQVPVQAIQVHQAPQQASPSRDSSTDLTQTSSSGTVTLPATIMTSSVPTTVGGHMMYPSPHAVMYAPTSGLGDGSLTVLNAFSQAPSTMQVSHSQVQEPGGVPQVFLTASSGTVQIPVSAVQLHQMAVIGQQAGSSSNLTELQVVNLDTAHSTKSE
The description is as above.

Assay [5] has as its target T4, SRF, endogenous in C2C12 cells (mouse (endogenous in C2C12)) (UniProt Q9JM73).
T4 sequence: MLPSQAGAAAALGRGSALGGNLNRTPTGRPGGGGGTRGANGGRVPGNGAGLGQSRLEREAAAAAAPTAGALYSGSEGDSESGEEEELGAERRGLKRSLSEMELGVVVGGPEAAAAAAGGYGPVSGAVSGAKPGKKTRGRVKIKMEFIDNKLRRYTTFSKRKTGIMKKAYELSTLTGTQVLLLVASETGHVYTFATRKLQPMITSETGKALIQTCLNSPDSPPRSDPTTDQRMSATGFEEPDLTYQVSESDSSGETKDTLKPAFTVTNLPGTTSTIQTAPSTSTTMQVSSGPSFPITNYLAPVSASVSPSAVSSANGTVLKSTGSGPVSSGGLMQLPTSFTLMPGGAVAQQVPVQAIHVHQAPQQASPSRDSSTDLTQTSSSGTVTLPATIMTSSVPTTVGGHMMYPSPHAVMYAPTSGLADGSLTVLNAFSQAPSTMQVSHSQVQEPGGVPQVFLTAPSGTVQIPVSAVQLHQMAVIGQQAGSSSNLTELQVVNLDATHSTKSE
Description: co-IP; endogenous proteins of C2C12 lysates; anti-SRF antibody (blot for NLK) or anti-ELK1 antibody (blot for SRF; wild-type and NLK-knockdown cells, with TPA); NP-40 lysis buffer, Protein A/G beads overnight at 4 °C.

Results are given in words; binding and its absence hold for the method and conditions named. In cells and extracts the contact can be indirect. Some results given as binding are weak or reduced against the parent protein; the word gives no strength. For some of these results: Tags and fused reporters may be left off the sequences shown.

B1: SRF, endogenous in C2C12 cells (protein, UniProt Q9JM73 1-504)
chain: MLPSQAGAAAALGRGSALGGNLNRTPTGRPGGGGGTRGANGGRVPGNGAGLGQSRLEREAAAAAAPTAGALYSGSEGDSESGEEEELGAERRGLKRSLSEMELGVVVGGPEAAAAAAGGYGPVSGAVSGAKPGKKTRGRVKIKMEFIDNKLRRYTTFSKRKTGIMKKAYELSTLTGTQVLLLVASETGHVYTFATRKLQPMITSETGKALIQTCLNSPDSPPRSDPTTDQRMSATGFEEPDLTYQVSESDSSGETKDTLKPAFTVTNLPGTTSTIQTAPSTSTTMQVSSGPSFPITNYLAPVSASVSPSAVSSANGTVLKSTGSGPVSSGGLMQLPTSFTLMPGGAVAQQVPVQAIHVHQAPQQASPSRDSSTDLTQTSSSGTVTLPATIMTSSVPTTVGGHMMYPSPHAVMYAPTSGLADGSLTVLNAFSQAPSTMQVSHSQVQEPGGVPQVFLTAPSGTVQIPVSAVQLHQMAVIGQQAGSSSNLTELQVVNLDATHSTKSE
For B1, in assay [1], the binding entry is recorded as “binds”.

B2: HA-SRF (serum response factor) (protein, UniProt P11831 1-508)
chain: MLPTQAGAAAALGRGSALGGSLNRTPTGRPGGGGGTRGANGGRVPGNGAGLGPGRLEREAAAAAATTPAPTAGALYSGSEGDSESGEEEELGAERRGLKRSLSEMEIGMVVGGPEASAAATGGYGPVSGAVSGAKPGKKTRGRVKIKMEFIDNKLRRYTTFSKRKTGIMKKAYELSTLTGTQVLLLVASETGHVYTFATRKLQPMITSETGKALIQTCLNSPDSPPRSDPTTDQRMSATGFEETDLTYQVSESDSSGETKDTLKPAFTVTNLPGTTSTIQTAPSTSTTMQVSSGPSFPITNYLAPVSASVSPSAVSSANGTVLKSTGSGPVSSGGLMQLPTSFTLMPGGAVAQQVPVQAIQVHQAPQQASPSRDSSTDLTQTSSSGTVTLPATIMTSSVPTTVGGHMMYPSPHAVMYAPTSGLGDGSLTVLNAFSQAPSTMQVSHSQVQEPGGVPQVFLTASSGTVQIPVSAVQLHQMAVIGQQAGSSSNLTELQVVNLDTAHSTKSE
Turning to B2, the binding entry in assay [2] and in assay [3] was “binds” throughout.

B3: HA-SRF^S101/103D (protein, UniProt P11831 1-508)
chain: MLPTQAGAAAALGRGSALGGSLNRTPTGRPGGGGGTRGANGGRVPGNGAGLGPGRLEREAAAAAATTPAPTAGALYSGSEGDSESGEEEELGAERRGLKRDLDEMEIGMVVGGPEASAAATGGYGPVSGAVSGAKPGKKTRGRVKIKMEFIDNKLRRYTTFSKRKTGIMKKAYELSTLTGTQVLLLVASETGHVYTFATRKLQPMITSETGKALIQTCLNSPDSPPRSDPTTDQRMSATGFEETDLTYQVSESDSSGETKDTLKPAFTVTNLPGTTSTIQTAPSTSTTMQVSSGPSFPITNYLAPVSASVSPSAVSSANGTVLKSTGSGPVSSGGLMQLPTSFTLMPGGAVAQQVPVQAIQVHQAPQQASPSRDSSTDLTQTSSSGTVTLPATIMTSSVPTTVGGHMMYPSPHAVMYAPTSGLGDGSLTVLNAFSQAPSTMQVSHSQVQEPGGVPQVFLTASSGTVQIPVSAVQLHQMAVIGQQAGSSSNLTELQVVNLDTAHSTKSE
As to B3, the binding entry in assay [2] and in assay [3] was “binds” throughout.

B4: Myc-NLK (Nemo-like kinase) (enzyme, UniProt Q9UBE8 1-527)
chain: MSLCGARANAKMMAAYNGGTSAAAAGHHHHHHHHLPHLPPPHLHHHHHPQHHLHPGSAAAVHPVQQHTSSAAAAAAAAAAAAAMLNPGQQQPYFPSPAPGQAPGPAAAAPAQVQAAAAATVKAHHHQHSHHPQQQLDIEPDRPIGYGAFGVVWSVTDPRDGKRVALKKMPNVFQNLVSCKRVFRELKMLCFFKHDNVLSALDILQPPHIDYFEEIYVVTELMQSDLHKIIVSPQPLSSDHVKVFLYQILRGLKYLHSAGILHRDIKPGNLLVNSNCVLKICDFGLARVEELDESRHMTQEVVTQYYRAPEILMGSRHYSNAIDIWSVGCIFAELLGRRILFQAQSPIQQLDLITDLLGTPSLEAMRTACEGAKAHILRGPHKQPSLPVLYTLSSQATHEAVHLLCRMLVFDPSKRISAKDALAHPYLDEGRLRYHTCMCKCCFSTSTGRVYTSDFEPVTNPKFDDTFEKNLSSVRQVKEIIHQFILEQQKGNRVPLCINPQSAAFKSFISSTVAQPSEMPPSPLVWE
As to B4, the binding entry in assay [4] was “binds”.

B5: NLK, endogenous in C2C12 cells (enzyme, UniProt O54949 1-527)
chain: MSLCGTRANAKMMAAYNGGTSAAAAGHHHHHHHHLPHLPPPHLHHHHHPQHHLHPGSAAAVHPVQQHTSSAAAAAAAAAAAAAMLNPGQQQPYFPSPAPGQAPGPAAAAPAQVQAAAAATVKAHHHQHSHHPQQQLDIEPDRPIGYGAFGVVWSVTDPRDGKRVALKKMPNVFQNLVSCKRVFRELKMLCFFKHDNVLSALDILQPPHIDYFEEIYVVTELMQSDLHKIIVSPQPLSSDHVKVFLYQILRGLKYLHSAGILHRDIKPGNLLVNSNCVLKICDFGLARVEELDESRHMTQEVVTQYYRAPEILMGSRHYSNAIDIWSVGCIFAELLGRRILFQAQSPIQQLDLITDLLGTPSLEAMRTACEGAKAHILRGPHKQPSLPVLYTLSSQATHEAVHLLCRMLVFDPSKRISAKDALAHPYLDEGRLRYHTCMCKCCFSTSTGRVYTSDFEPVTNPKFDDTFEKNLSSVRQVKEIIHQFILEQQKGNRVPLCINPQSAAFKSFISSTVAQPSEMPPSPLVWE
As to B5, in assay [5], the binding entry was “binds”.
